Data: PubChem BioAssay AID540256 (National Center for Advancing Translational Sciences (NCATS), 2011)
Hit rate of the full screen: of about 300,000 compounds, about 3,700 (1.2%) were called active. Inconclusive means that the source gave no clear call. Such entries were picked first, then a sample of the others. The call rests on the fitted dose curve; tested in HEK293 cells. Where the call is inconclusive, the potency comes from a doubtful curve fit.

Assay: qHTS for Inhibitors of binding or entry into cells for Lassa Virus; further: nearly all actives have a fitted effect of over 50% in size
Details: Lassa virus pseudotype entry inhibition, cell reporter; series mostly up to 37.9 µM
Potency means the concentration at half of the fitted maximal effect.

Row | SMILES | Potency
1 | O=C(O)c1cn(C2CC2)c2cc(N3CCN(S(=O)(=O)c4ccc5c(c4)OCCO5)CC3)c(F)cc2c1=O | inconclusive: 35.5 µM [inhibitor, single point]
2 | CCCNS(=O)(=O)/C=C/c1ccccc1 | inactive
3 | COCCCNC(=O)CSc1nc2c(sc3ccccc32)c(=O)n1CCCC(=O)NCCOC | inactive
4 | Fc1ccccc1Cn1c(-c2ccccc2)nc2ccccc21 | inconclusive: 3.16 µM [activator, single point]
5 | COC(=O)c1cnn(-c2nc(-c3ccccc3)cs2)c1N | inconclusive: 6.31 µM [inhibitor, single point]
6 | c1ccc2c(c1)CSc1sccc1C2=C1CCNCC1 | inconclusive: 11.2 µM [inhibitor, partial curve]
7 | Nn1c(SCC(=O)Nc2ccc3c(c2)OCO3)nnc1-c1ccccc1 | inconclusive: 16.4 µM [activator, partial curve, poor fit]
8 | Cc1ccc(NC(=O)CSc2nc(-c3ccco3)nc3cc(=O)[nH]n23)cc1C | inactive
9 | COC(=O)C1=C(CN2CCc3ccccc32)NC(=O)NC1c1cc(C)ccc1C (centres undefined) | inconclusive: 15.8 µM [inhibitor, single point]
10 | CCOC(=O)c1ccc2c(c1)n(CC)c(C)[n+]2CC | inactive
11 | Cc1cccc2nc(-c3cccc(NS(=O)(=O)c4ccccc4)c3)cn12 | inactive
12 | CN(c1ccc(F)cc1)S(=O)(=O)c1ccc(Cl)c(C(=O)NCC(c2ccco2)N2CCCCC2)c1 (centres undefined) | inconclusive: 11.2 µM [inhibitor, single point]
13 | Cc1coc2c1c(C)cc1oc(=O)c(CC(=O)NCC(=O)N[C@H](C(=O)O)C(C)C)c(C)c12 | inconclusive: 25.1 µM [activator, single point]
14 | CCc1c(C)nc2ncnn2c1NCCc1ccc(Cl)cc1 | inconclusive: 35.5 µM [inhibitor, single point]
15 | CCOC(=O)Cn1nc(C)c(NC(=O)COc2ccc(Cl)cc2C)c1C | inactive
16 | CCC(C)(C)NC(=O)CN(Cc1cccs1)C(=O)C(=O)Nc1ccc2c(c1)OCCO2 | inconclusive: 3.26 µM [inhibitor, partial curve, poor fit]
17 | O=C(COc1ccccc1)NCC(=O)Nc1ccc(S(=O)(=O)NCc2ccco2)cc1 | inactive
18 | CN(C(=O)COC(=O)c1cc(NS(=O)(=O)c2cc([N+](=O)[O-])ccc2Cl)ccc1O)C1CCCCC1 | inconclusive: 1.64 µM [inhibitor, full curve]
19 | COCCCNCCC(CCC(C)C)c1ccc2c(c1)OCO2 (centres undefined) | inconclusive: 15.8 µM [inhibitor, partial curve, poor fit]

Sorted by molecular weight (falling): part of the list above.
Row | SMILES | Potency
13 | Cc1coc2c1c(C)cc1oc(=O)c(CC(=O)NCC(=O)N[C@H](C(=O)O)C(C)C)c(C)c12 | inconclusive: 25.1 µM [activator, single point]
8 | Cc1ccc(NC(=O)CSc2nc(-c3ccco3)nc3cc(=O)[nH]n23)cc1C | inactive
5 | COC(=O)c1cnn(-c2nc(-c3ccccc3)cs2)c1N | inconclusive: 6.31 µM [inhibitor, single point]
